Where “and” joins values, the source holds several entries; their conditions need not be identical. Identical values can stand only once. This continues a long series; more values of the same kind are listed elsewhere.
Test system: RPE1 cells
Assay: Cell growth assay (IncuCyte confluence over 72 h)
Assay type: cell-based
Method in brief: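 Phase confluence (% area covered by cells) imaged every 2 h for 72 h after compound addition; cells in DMEM/10% FBS, seeded 24 h before treatment. Controls were 0.1% DMSO, 250 nM Torin1 and 200 ng/mL Bafilomycin (final). Each point averages three wells.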

`O=c1cc(-c2ccccc2)c2c(O)cc(O)cc2o1` [compound 2] was tested, and the RPE1 cell growth (100 nM, 10 h, listed as AN2) was 21, the RPE1 cell growth (100 nM, 16 h, listed as AN2) was 40 and 20 and 26 and the RPE1 cell growth (100 nM, 22 h, listed as AN2) was 47 and 24 and 30. The RPE1 cell growth (100 nM, 36 h, listed as AN2) was 81 and 42 and 49, the RPE1 cell growth (100 nM, 38 h, listed as AN2) was 85 and 46 and 52 and the RPE1 cell growth (100 nM, 40 h, listed as AN2) was 87 and 48 and 55. The RPE1 cell growth (100 nM, 44 h, listed as AN2) was 93 and 57 and 63, the RPE1 cell growth (100 nM, 46 h, listed as AN2) was 96 and 61 and 68 and the RPE1 cell growth (100 nM, 48 h, listed as AN2) was 97 and 64 and 73. The RPE1 cell growth (100 nM, 50 h, listed as AN2) was 98 and 69 and 76, the RPE1 cell growth (100 nM, 52 h, listed as AN2) was 99 and 74 and 79 and the RPE1 cell growth (100 nM, 54 h, listed as AN2) was 99 and 79 and 85. The RPE1 cell growth (100 nM, 56 h, listed as AN2) was 100 and 81 and 82, the RPE1 cell growth (100 nM, 58 h, listed as AN2) was 100 and 86 and 91 and the RPE1 cell growth (100 nM, 60 h, listed as AN2) was 100 and 91 and 94. For the same compound, the RPE1 cell growth (100 nM, 62 h, listed as AN2) was 100 and 94 and 96, the RPE1 cell growth (100 nM, 64 h, listed as AN2) was 100 and 96 and 97 and the RPE1 cell growth (100 nM, 66 h, listed as AN2) was 100 and 98 and 99. The RPE1 cell growth (100 nM, 68 h, listed as AN2) was 100 and 99, the RPE1 cell growth (100 nM, 70 h, listed as AN2) was 100 and 99 and the RPE1 cell growth (100 nM, 72 h, listed as AN2) was 100 and 99. The RPE1 cell growth (500 nM, 10 h, listed as AN2) was 36 and 22 and 26, the RPE1 cell growth (500 nM, 12 h, listed as AN2) was 39 and 24 and 27 and the RPE1 cell growth (500 nM, 14 h, listed as AN2) was 41 and 26 and 29. For the same compound, the RPE1 cell growth (500 nM, 16 h, listed as AN2) was 42 and 27 and 30, the RPE1 cell growth (500 nM, 18 h, listed as AN2) was 46 and 28 and 31 and the RPE1 cell growth (500 nM, 20 h, listed as AN2) was 46 and 29 and 35. For the same compound, the RPE1 cell growth (500 nM, 22 h, listed as AN2) was 50 and 32 and 37, the RPE1 cell growth (500 nM, 24 h, listed as AN2) was 58 and 34 and 39 and the RPE1 cell growth (500 nM, 26 h, listed as AN2) was 60 and 38 and 42. For the same compound, the RPE1 cell growth (500 nM, 28 h, listed as AN2) was 65 and 39 and 43, the RPE1 cell growth (500 nM, 30 h, listed as AN2) was 71 and 43 and 47 and the RPE1 cell growth (500 nM, 32 h, listed as AN2) was 75 and 47 and 50. For the same compound, the RPE1 cell growth (500 nM, 34 h, listed as AN2) was 78 and 50 and 55, the RPE1 cell growth (500 nM, 36 h, listed as AN2) was 80 and 52 and 58 and the RPE1 cell growth (500 nM, 38 h, listed as AN2) was 85 and 56 and 62. The RPE1 cell growth (500 nM, 40 h, listed as AN2) was 88 and 60 and 65, the RPE1 cell growth (500 nM, 42 h, listed as AN2) was 90 and 63 and 68 and the RPE1 cell growth (500 nM, 44 h, listed as AN2) was 93 and 71 and 73. The RPE1 cell growth (500 nM, 46 h, listed as AN2) was 95 and 73 and 78, the RPE1 cell growth (500 nM, 48 h, listed as AN2) was 97 and 78 and 82 and the RPE1 cell growth (500 nM, 50 h, listed as AN2) was 98 and 83 and 85. The RPE1 cell growth (500 nM, 52 h, listed as AN2) was 99 and 88, the RPE1 cell growth (500 nM, 54 h, listed as AN2) was 99 and 92 and the RPE1 cell growth (500 nM, 56 h, listed as AN2) was 100 and 94 and 91. For the same compound, the RPE1 cell growth (500 nM, 58 h, listed as AN2) was 100 and 96, the RPE1 cell growth (500 nM, 60 h, listed as AN2) was 100 and 98 and 97 and the RPE1 cell growth (500 nM, 62 h, listed as AN2) was 100 and 99. For the same compound, the RPE1 cell growth (500 nM, 64 h, listed as AN2) was 100 and 99, the RPE1 cell growth (500 nM, 66 h, listed as AN2) was 100 and 99 and the RPE1 cell growth (500 nM, 68 h) was 100. For the same compound, the RPE1 cell growth (500 nM, 70 h) was 100, the RPE1 cell growth (500 nM, 72 h) was 100 and the RPE1 cell growth (1 uM, 10 h, listed as AN2) was 35 and 28. The RPE1 cell growth (1 uM, 12 h, listed as AN2) was 26 and 38 and 30, the RPE1 cell growth (1 uM, 14 h, listed as AN2) was 28 and 41 and 31 and the RPE1 cell growth (1 uM, 16 h, listed as AN2) was 30 and 42 and 35. The RPE1 cell growth (1 uM, 18 h, listed as AN2) was 31 and 45 and 36, the RPE1 cell growth (1 uM, 20 h, listed as AN2) was 33 and 45 and 36 and the RPE1 cell growth (1 uM, 22 h, listed as AN2) was 35 and 48 and 41. The RPE1 cell growth (1 uM, 24 h, listed as AN2) was 37 and 56 and 44, the RPE1 cell growth (1 uM, 26 h, listed as AN2) was 40 and 58 and 47 and the RPE1 cell growth (1 uM, 28 h, listed as AN2) was 41 and 63 and 48. For the same compound, the RPE1 cell growth (1 uM, 30 h, listed as AN2) was 45 and 69 and 52, the RPE1 cell growth (1 uM, 32 h, listed as AN2) was 50 and 73 and 56 and the RPE1 cell growth (1 uM, 34 h, listed as AN2) was 53 and 78 and 60. The RPE1 cell growth (1 uM, 36 h, listed as AN2) was 58 and 80 and 63, the RPE1 cell growth (1 uM, 38 h, listed as AN2) was 61 and 83 and 68 and the RPE1 cell growth (1 uM, 40 h, listed as AN2) was 65 and 87 and 72. For the same compound, the RPE1 cell growth (1 uM, 42 h, listed as AN2) was 70 and 89 and 75, the RPE1 cell growth (1 uM, 44 h, listed as AN2) was 74 and 93 and 81 and the RPE1 cell growth (1 uM, 46 h, listed as AN2) was 79 and 94 and 84. The RPE1 cell growth (1 uM, 48 h, listed as AN2) was 83 and 97 and 88, the RPE1 cell growth (1 uM, 50 h, listed as AN2) was 87 and 97 and 91 and the RPE1 cell growth (1 uM, 52 h, listed as AN2) was 89 and 98 and 95. For the same compound, the RPE1 cell growth (1 uM, 54 h, listed as AN2) was 93 and 99 and 97, the RPE1 cell growth (1 uM, 56 h, listed as AN2) was 96 and 99 and 98 and the RPE1 cell growth (1 uM, 58 h, listed as AN2) was 97 and 100 and 99. The RPE1 cell growth (1 uM, 60 h, listed as AN2) was 98 and 100, the RPE1 cell growth (1 uM, 62 h, listed as AN2) was 99 and 100 and the RPE1 cell growth (1 uM, 64 h, listed as AN2) was 99 and 100. For the same compound, the RPE1 cell growth (1 uM, 66 h, listed as AN2) was 99 and 100, the RPE1 cell growth (1 uM, 68 h) was 100 and the RPE1 cell growth (1 uM, 70 h) was 100. The RPE1 cell growth (1 uM, 72 h) was 100, the RPE1 cell growth (3 uM, 12 h, listed as AN2) was 42 and 29 and 30 and the RPE1 cell growth (3 uM, 14 h, listed as AN2) was 45 and 29 and 32. The RPE1 cell growth (3 uM, 16 h, listed as AN2) was 48 and 32 and 35 and the RPE1 cell growth (3 uM, 18 h, listed as AN2) was 51 and 33 and 36.
